From US20060193771A1

What was measured:
[1] = biological target: soluble CD30 produced by shedding from L540 cells (culture supernatant) (human); test: competitive ELISA, soluble CD30 (L540 supernatant) against coated CD30-Fc
[2] = biological target: CD30 in Western blots (human); test: Western blot

| Binder | binding [1] | binding [2] |
| --- | --- | --- |
| T13 MAb (antibody, V domains shown) VH: QVQLQQSGAELAKPGASVKMSCKASGYTFTTYWMHWVKQRPGQGLEWIGYINPSTGYTDYNEKFKDKATLTADKSSSTAYMQLSSLTSEDSAVYYCVRRGSYDGNPFAYWGQGTLVSVSA VL: DIVMTQSHKFMSTSVGDRVTITCKASQDVSTAVAWYQQKPGHSPKLLIYWASTRHTGVPDRFTGSGSGTDYTLTISSVQVEDLALYYCQQHYSTPFTFGSGTKLEIKR | binds |  |
| T420 MAb (antibody, V domains shown) VH: QVQLQQSGAELAKPGASVKMSCKASGYTFTSYWMHWVKQRPGQDLEWIGYINPSTDYTDYNQKFKDKATLTADKSSSTAYMQLSSLTSEDSAVYYCATRHYGSSYGFAYWGQGTLVTVSA VL: DIVMTQSHKFMSTSVGDRVSITCKASQDVSTAVAWYQQKPGQSPKLLIYWASTRHTGVPDRFTGSGSGTDYSLTISSVQAEDLAVYYCQQHYRTPFTFGSGTKLEIKR | binds |  |
| T24 MAb (antibody, V domains shown) VH: QVQLQQPGAELVRPGASVKLSCKASGYSFTSYWIDWVKQRPGQGLEWIGNIYPSNAYTNYNQKFKDKATLTVDKSSSTAYMQLSSPTSEDSAVYYCTSVLDYFYAMDYWGQGTSVTVSS VL: DIQMTQTTSSLSASLGDRVTISCRASQDISNYLNWYQQKPDGTVKLLIYYTSRLHSGVPSRFSGSGSGTDYSLTISNLEQEDIATYFCQQVNTLPRTFGGGTKLEIKR | binds |  |
| T201 MAb (antibody, V domains shown) VH: QVQLKESGPGLVAPSQSLSITCTVSGFSLIDYGVSWVRQPPGKGLEWLGMIWGDGNTDYNSGLKSRLSISKDNSKSQVFLKVNSLQTDDTARYYCARPSTGTLFAYWGQGTLVTVSA VL: EIVLTQSPTTMAASPGERITFTCSASSGISSIYLHWYQQKPGFSPKLLIYRTSNLASGVPPRFSGSGSGTSYSLTIGTMEAEDVATYYCQQGSSIPLTFGAGTKLELKR | binds | no binding |

These are yes or no findings as the source states them, for the method shown. For some assays here: Binding can be weak; no strength is given.
